Test results from patent publication US4430335A (priority 1983, dated 1984).

Test system: mice
Assay: animal or person
Type: in vivo, mice (male, CD-1)
Conditions: Mus musculus, sc, read-out: Dose Subcutaneously (sc) [*= ED50 ], 50 % Inhibition of phenylquinone writhing

SMILES: CN1CC[C@]23c4c5ccc(O)c4O[C@H]2[C@@H](O)C=C[C@H]3[C@H]1C5.O=S(=O)(O)O [morphine sulfate]
- ED50: 0.52 mg/kg
